# Reference: PubChem BioAssay AID2718 (Broad Institute, 2010)
# By UniProt entry, the sequences of proteins in these tests, tags left out. Where a name states a change or a piece, a line headed by the entry shows the natural chain unless it says otherwise.
# UniProt O15379: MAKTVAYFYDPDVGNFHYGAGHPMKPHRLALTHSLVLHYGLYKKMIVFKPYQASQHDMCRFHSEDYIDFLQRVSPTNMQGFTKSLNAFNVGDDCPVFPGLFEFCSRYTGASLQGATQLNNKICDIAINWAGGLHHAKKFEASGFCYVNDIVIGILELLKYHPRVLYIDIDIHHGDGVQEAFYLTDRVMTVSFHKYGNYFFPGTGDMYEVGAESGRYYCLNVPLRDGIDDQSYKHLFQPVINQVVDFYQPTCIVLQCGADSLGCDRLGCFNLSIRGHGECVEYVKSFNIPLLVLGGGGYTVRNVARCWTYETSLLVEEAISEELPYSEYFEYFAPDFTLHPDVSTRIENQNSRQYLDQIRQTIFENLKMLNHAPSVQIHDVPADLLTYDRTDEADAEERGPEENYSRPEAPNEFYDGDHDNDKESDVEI
# Out of some 320,000 compounds screened, about 480 (0.15%) were called active. Inconclusive results, whose numbers are uncertain, are shown with a selection of clear calls. Cut-off read from the data, not from the text of the source: active = inhibition above about 26% (passing the limit was not always enough); inconclusive = no clear call, values can overlap the other calls.
# Molecular target: Histone deacetylase 3 (Homo sapiens) (UniProt O15379)
# Test: HDAC3 deacetylase inhibitors, primary screen, biochemical, fluorescence, cell-free homogeneous (AID 2718)
# Conditions: recombinant HDAC3, fluorogenic peptide/trypsin coupled, at 8.3 µM, stronger effect = higher value
row,Structure (SMILES),inhibition
1,O=C(c1ccc(-n2cccc2)cc1)N1CCOCC1,inconclusive: 14.1%
2,Cc1nc(SCC(=O)N2CCOCC2)c2c3c(sc2n1)CCC3,inactive: 5.47%
3,CN(C)/C=C1/C(=O)N(c2ccc([N+](=O)[O-])cc2)N=C1c1ccccc1,inconclusive: 9.79%
4,Cc1ccccc1-n1c(SC2CCOC2=O)nnc1-c1ccncc1 (stereo unspecified),inconclusive: 20.8%
5,Cc1ccc(N=Nc2ccc(O)c3ncccc23)cc1C,inconclusive: 19.5%
6,Cc1ccc(N/C=C(/C#N)c2ccsc2)cc1,inconclusive: 20.3%
7,COc1cc(/C=N/Nc2nc(Nc3ccccc3)nc(-n3nc(C)cc3C)n2)cc(OC)c1OC,inconclusive: 16.7%
8,O=[N+]([O-])c1cccc(-c2csc(N/N=C/c3cccc(O)c3)n2)c1,inconclusive: 26.5%
9,O=C(Nc1ccc(F)cc1)Nc1nnc(-c2ccncc2)s1,inconclusive: 22.9%
10,Cc1ccccc1Cn1c(=N)n(CC(O)c2ccco2)c2ccccc21 (stereo unspecified),inactive: 4.32%
11,COC(=O)c1cc(S(=O)(=O)NCCN2CCOCC2)cn1C,inconclusive: 16.2%
12,Cc1ccc(NC(=O)c2cc(N3C(=O)C=CC3=O)ccc2Cl)cc1C,inconclusive: 24.5%
13,CSc1nc(-c2ccco2)nn1C(=O)c1ccco1,active: 71.7%
14,C=CCNC(=O)c1ccc(OC)cc1OC,inconclusive: 10%
15,CC1CCCCC1NC(=O)C(C)N1C(=O)c2ccccc2C1=O (stereo unspecified),inactive: -5.8%
16,CCC(C)(C)c1ccc(OCC(=O)N(C)C)c(C(C)(C)CC)c1,inconclusive: 17.7%
17,N#C[C@@H]1[C@@H]2C(=O)N(c3ccc4c(c3)OCCO4)C(=O)[C@@H]2C2c3ccccc3C=CN21 (stereo partly specified),inactive: 6.38%
18,O=C(O)C(O)C(O)C(O)C(O)C(=O)O (stereo unspecified) (tested in a mixture with another compound),inactive: -7.36%
19,O=C(CN(C(=O)CSc1nc2ccccc2o1)c1ccccc1)NC1CCCCC1,inactive: -6.21%

row,Structure (SMILES),inhibition
1,O=C(CSc1c2c(nc3cc(Cl)ccc13)CCCC2)NCCN1CCOCC1,inactive: -3.17%
2,O=C(Nc1ccnn1C1CCN(C2CCOCC2)CC1)c1cccc(F)c1,inconclusive: 22.3%
3,O=[N+]([O-])c1cccc(/C=N/n2c(-c3cccnc3)n[nH]c2=S)c1,inconclusive: 19.4%
4,Cc1cc(-c2ccccc2)nc(Oc2ccc(C(C)(C)C)cc2)c1S(C)(=O)=O,inconclusive: 20.8%
5,CN1C(=O)C(C)(C)c2cc(S(=O)(=O)N3CCCC(C(=O)NCc4ccccc4Cl)C3)ccc21 (stereo unspecified),inconclusive: 11.9%
6,CC1Cc2cc(/C=C3/SC(=S)NC3=O)ccc2O1 (stereo unspecified),inconclusive: 28.1%
7,O=C(CNC(=O)c1ccc(Br)cc1)N=Nc1c(O)[nH]c2ccc([N+](=O)[O-])cc12,inactive: 2.2%
8,O=C1CCCCC1C(Nc1ccc(Br)cc1)c1ccccc1 (stereo unspecified),inconclusive: 27.4%
9,COc1cc(C(=O)NCC(=O)N/N=C/c2cccc(OC(=O)c3ccco3)c2)cc(OC)c1OC,inconclusive: 19.2%
10,CCN(CC)S(=O)(=O)c1ccc(NC(=O)c2ccc(N3CCCC3=O)cc2)cc1,inactive: 1.21%
11,CCN1CCc2nc3sc(C(=O)N4CCc5ccccc5C4)c(N)c3cc2C1,inactive: 10.2%
12,Cc1ccc(NC(=O)c2nn(C34CC5CC(CC(C5)C3)C4)cc2[N+](=O)[O-])cc1,inconclusive: 22.6%
13,COc1ccc2c(c1OC)C(=O)N1c3cccc(Cl)c3C(=O)OC21 (stereo unspecified),inconclusive: 8.61%
14,CC1CN(CCCCOc2ccc3ccccc3c2)CC(C)O1 (stereo unspecified),inconclusive: 13%
15,COc1ccc(OC)c(CNC(=O)C2CCN(S(=O)(=O)N3CCC(C)CC3)CC2)c1,inconclusive: 14.1%
16,C/C(=N/NC(=O)CNC(=O)/C=C/c1ccccc1)c1ccco1,inactive: 5.37%
17,COc1ccc(C(=O)Nc2ccc(C(=O)OCC(=O)c3ccccc3)cc2)cc1,inconclusive: 23.9%
18,CSc1ccc(-c2sc(Nc3cccc4ccccc34)n[n+]2-c2ccccc2)cc1,inactive: 6.56%
19,CN(C)/C=N/c1cc(=O)n(Cc2ccccc2)c(=O)n1C,inconclusive: 23.2%

# Four compounds from above, ordered by length of the SMILES, largest number first:
row,Structure (SMILES),inhibition
5,CN1C(=O)C(C)(C)c2cc(S(=O)(=O)N3CCCC(C(=O)NCc4ccccc4Cl)C3)ccc21 (stereo unspecified),inconclusive: 11.9%
15,COc1ccc(OC)c(CNC(=O)C2CCN(S(=O)(=O)N3CCC(C)CC3)CC2)c1,inconclusive: 14.1%
18,CSc1ccc(-c2sc(Nc3cccc4ccccc34)n[n+]2-c2ccccc2)cc1,inactive: 6.56%
19,CN(C)/C=N/c1cc(=O)n(Cc2ccccc2)c(=O)n1C,inconclusive: 23.2%

# Additional structures.

row,Structure (SMILES),inhibition
1,O=C(CN1CCOCC1)NCC12CC3CC(CC(C3)C1)C2,inconclusive: 31.9%
2,CNC(=O)NC(=O)C(OC(=O)CCNS(=O)(=O)c1ccccc1)c1ccccc1 (stereo unspecified),inconclusive: 24.9%
3,COc1cc(C2Nc3ccccc3NC3=C2C(=O)CC(C)(C)C3)cc(OC)c1OC(C)=O (stereo unspecified),inconclusive: 15.1%
4,N#CC1=C2SCN(c3ccccc3)CN2C(=O)CC1c1c(Cl)cccc1Cl (stereo unspecified),active: 60.7%
5,COc1ccc(N2CSC3=C(C#N)C(c4cc(OC)c(OC)cc4OC)CC(=O)N3C2)c(OC)c1 (stereo unspecified),active: 38.1%
6,Cc1ccc(Cn2nc(C)cc2C(=O)Nc2ccc(Cl)cc2)cc1,inconclusive: 37.6%
7,O=C1C2CCCCN2C(=O)N1CCCCN1CCN(c2ccccc2Oc2ccccc2)CC1 (stereo unspecified),inconclusive: 30.1%
8,CCOC(=O)N1CCN(C(=O)/C=C/c2ccc(C(C)(C)C)cc2)CC1,inactive: 6.24%
9,CCCC(=O)Nc1ccc(C=C(C(C)=O)C(C)=O)cc1,inconclusive: 15%
10,CCOC(=O)c1c(N)sc2c(NC(C)=O)cccc12,inconclusive: 11.5%
11,CCC(C)[C@H](NS(=O)(=O)c1ccc(C)cc1)C(=O)N1CCC(C(=O)N[C@@H](Cc2ccccc2)C(=O)O)CC1 (stereo partly specified),inactive: 0.562%
12,CCC(c1nnc(SCC(=O)Nc2cc(C)on2)o1)N(C)C (stereo unspecified),inactive: -5.89%
13,O=C(CSc1nncc2ccccc12)Nc1ccc(F)cc1,inactive: 5.59%
14,Cc1ccc(-c2nn(-c3ccccc3)cc2/C=C2\SC(=S)N(CCCCCC(=O)O)C2=O)o1,active: 31.7%
15,CCOc1ccccc1NC=C1C(=O)OC(C)(C)OC1=O,inconclusive: 20.4%
16,COc1ccc(/C=C/C(=O)NNC(=O)c2cc(C)oc2C)cc1,inconclusive: 28.8%
17,O=C(COC(=O)c1ccc2c(c1)OCO2)Nc1ccccc1,inactive: -1.96%
18,CCc1c(C)nc(N2CCN(c3cccc(OC)c3)CC2)[nH]c1=O,inactive: 5.81%
